Measurements taken from PubChem BioAssay AID1259421 (Broad Institute, 2018).
Several values for one entry are separate records, joined by “and”; a condition that tells them apart may be missing. Equal entries are not always repeated. Among all 6,400 compounds or so, about 610 (9.5%) were called active. This list was built around the results that the source calls inconclusive (neither active nor inactive); the mix of calls is not that of the screen. No stated cut-off is given here; in the data, active means activity change below about -70%; inconclusive means no clear call, values can overlap the other calls; inactive means above that. Some compounds were tested as several samples or in several runs, with calls that do not always agree.

Test: T. gondii ME49Luc in HeLa cells, luciferase assay, 72 h, no IFN-y (AID 1259421)
Details: stronger effect = lower value, concentration not given here

Compound | activity change, negative = inhibition
CC[C@H](C)[C@H](NC(=O)[C@H](Cc1ccc(O)cc1)NC(=O)[C@@H](NC(=O)[C@@H](CCCN=C(N)N)NC(=O)[C@@H](N)CC(=O)O)C(C)C)C(=O)N[C@@H](Cc1cnc[nH]1)C(=O)N1CCC[C@@H]1C(=O)N[C@H](Cc1ccccc1)C(=O)O | inconclusive: -71%
Cc1cc(C)c(N(Cc2ccccc2)S(=O)(=O)c2ccc(OCCNC(=O)c3cc4ccccc4o3)cc2)c(C(=O)NO)c1 | inconclusive: -74.9%
c1ccc(C(NCCNC(c2ccccc2)c2ccccc2)c2ccccc2)cc1 | inactive: -24.5% and inactive: -4.76%
C[C@]12CCC3c4ccc(OC(=O)c5ccccc5)cc4CCC3C1CCC2O (stereo partly specified) | inconclusive: -72.2%
COc1cc2nccc(Oc3ccc(NC(=O)C4(C(=O)Nc5ccc(F)cc5)CC4)cc3)c2cc1OC | inconclusive: -70.1% and active: -93.3%
CC(C)Oc1ccc(C(=O)N[C@H](CNC(=O)CN(C)C)Cc2ccc(-c3cn4cccc([C@H](C)O)c4n3)cc2)cc1Cl | inconclusive: -72.1%
O=C(O)[C@@H]1C[C@H]2C[C@@H](CCc3nn[nH]n3)CC[C@H]2CN1 | inactive: 15.6%
O=C(NC(NC(=S)Nc1ccc(F)c([N+](=O)[O-])c1)C(Cl)(Cl)Cl)C(c1ccccc1)c1ccccc1 (stereo unspecified) | inconclusive: -70.6%
COc1cc([C@@H]2c3cc4c(cc3[C@H](O)[C@H]3COC(=O)[C@H]23)OCO4)cc(OC)c1OC | inconclusive: -70%
COc1cc(N2CCN(C)CC2)ccc1Nc1nccc(-c2cn(C)c3cnccc23)n1 | inconclusive: -70.5%
O=C(NC1CCNCC1)c1[nH]ncc1NC(=O)c1c(Cl)cccc1Cl | inconclusive: -73%
O=C1CN(/N=C/c2ccc(-c3ccc([N+](=O)[O-])cc3)o2)C(=O)N1 | inconclusive: -71.5%
NC(=NCCCCCCN=C(N)/N=C(\N)Nc1ccc(Cl)cc1)/N=C(\N)Nc1ccc(Cl)cc1 | inconclusive: -70.4%
Cc1cc(CN2CCN(c3c(Br)cnc4nc(-c5ccc(N6CCN(C)CC6)cc5)[nH]c34)CC2)no1 | inconclusive: -70.2%
Cc1c(O)c(=O)n(-c2ccccc2)n1C | active: -80.6%
COc1cc(OC2CCN(C)CC2)ccc1Nc1ncc2c(n1)n(C1CCCC1)c(=O)n2C | inactive: -32%

Compound | activity change, negative = inhibition
O=C(/C=C/c1ccccc1)NC(NC(=S)Nc1cccc2cccnc12)C(Cl)(Cl)Cl (stereo unspecified) | inconclusive: -72.6%
Fc1ccc(Cl)cc1-c1nc(Nc2ccncc2)c2nccnc2n1 | inconclusive: -72%
COc1cc(C(=O)O)ccc1NC(=O)[C@@H]1N[C@@H](CC(C)(C)C)[C@](C#N)(c2ccc(Cl)cc2F)[C@H]1c1cccc(Cl)c1F | inconclusive: -70.5%
C=C(NC(=O)C(=C)NC(=O)c1csc(C2=N[C@@H]3c4csc(n4)[C@H]4NC(=O)c5csc(n5)[C@H]([C@](C)(O)[C@@H](C)O)NC(=O)[C@H]5CSC(=N5)/C(=C/C)NC(=O)[C@H]([C@@H](C)O)NC(=O)c5csc(n5)[C@]3(CC2)NC(=O)[C@H](C)NC(=O)C(=C)NC(=O)[C@H](C)NC(=O)[C@H]([C@@H](C)CC)N[C@@H]2C=Cc3c([C@H](C)O)cc(nc3[C@H]2O)C(=O)O[C@@H]4C)n1)C(N)=O | inconclusive: -72.5%
C=C1/C(=C/C=C2/CCC[C@]3(C)[C@@H]([C@H](C)CCCC(C)C)CC[C@@H]23)C[C@@H](O)C[C@@H]1O | active: -75.5%
COc1cc(-c2coc3cc(OCc4ccccc4)c(OC)c(O)c3c2=O)cc(O)c1OC | inconclusive: -75.7%
COc1ccc(CCCOC(Cn2ccnc2)c2ccc(OC)cc2)cc1 (stereo unspecified) | inconclusive: -70.1%
C=C[C@@](C)(/C=C/c1ccc(O)cc1)CCC=C(C)C | inactive: 11.8%
C[C@]12CCC3c4ccc(O)cc4CCC3C1CCC2=O (stereo partly specified) | inconclusive: -72%
Clc1ccc(C2(c3ccc(-c4cn[nH]c4)cc3)CCNCC2)cc1 | inconclusive: -70.7%
CC(NCCc1ccc(O)cc1)C(O)c1ccc(O)cc1 (stereo unspecified) | inactive: 1.92% and inactive: 4.83%
CCCCc1oc2ccccc2c1C(=O)c1cc(I)c(OCCN(CC)CC)c(I)c1 | inconclusive: -70.2%
CN(C)C/C=C/C(=O)Nc1cc2c(Nc3ccc(F)c(Cl)c3)ncnc2cc1O[C@H]1CCOC1 | active: -87.8%
CCCCCCCCCCCCCCCC[n+]1ccccc1 | inactive: -12.3% and active: -82.5%
C=C[C@@H]1C[C@]1(NC(=O)[C@@H]1C[C@@H](Oc2ncc(OC)c3ccc(Cl)cc23)CN1C(=O)[C@@H](NC(=O)OC(C)(C)C)C(C)(C)C)C(=O)NS(=O)(=O)C1CC1 | active: -73.7%

At a glance, part of the list above.
Compound | activity change, negative = inhibition
CN(C)C/C=C/C(=O)Nc1cc2c(Nc3ccc(F)c(Cl)c3)ncnc2cc1O[C@H]1CCOC1 | active: -87.8%
CCCCCCCCCCCCCCCC[n+]1ccccc1 | inactive: -12.3% and active: -82.5%
